Assay results: publication doi:10.1101/2021.05.19.444882
These are yes or no findings as the source states them, for the method shown. Some binding calls cover weakened binding; strength is not graded here.

Chains of the proteins cited; added tags and fusions are not shown. Residues count along the entry.
UniProt P78310, residues 20-365: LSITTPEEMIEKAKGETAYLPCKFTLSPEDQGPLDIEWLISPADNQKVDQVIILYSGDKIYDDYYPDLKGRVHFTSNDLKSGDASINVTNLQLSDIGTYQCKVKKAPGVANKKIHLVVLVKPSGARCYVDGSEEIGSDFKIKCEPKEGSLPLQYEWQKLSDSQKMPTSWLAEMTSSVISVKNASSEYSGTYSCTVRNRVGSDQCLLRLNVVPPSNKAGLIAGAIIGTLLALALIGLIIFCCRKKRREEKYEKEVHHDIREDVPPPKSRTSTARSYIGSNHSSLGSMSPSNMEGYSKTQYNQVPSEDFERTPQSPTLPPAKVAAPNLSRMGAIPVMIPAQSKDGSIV

Target: coxsackie and adenovirus receptor (CAR) (UniProt P78310)
Assay: flow cytometry on cells

B1: HAdV-C5 fiber-knob protein (domain or fragment, UniProt P11818 386-581)
chain: TGAITVGNKNNDKLTLWTTPAPSPNCRLNAEKDAKLTLVLTKCGSQILATVSVLAVKGSLAPISGTVQSAHLIIRFDENGVLLNNSFLDPEYWNFRNGDLTEGTAYTNAVGFMPNLSAYPKSHGKTAKSNIVSQVYLNGDKTKPVTLTITLNGTQETGDTTPSAYSMSFSWDWSGHNYINEIFATSSYTFSYIAQE
**Q.** How did the binding turn out when B1 was run?
**A.** binds
